Measured values published in article PMC6477152 (2019).
No constants are given. Whether binding was seen depends on the method and setting. For some of these results: Binding seen in cells or lysates may run through a third protein. Some entries that bind do so weakly or less than the wild type. For some of these results: Tags and fused reporters may be left off the sequences shown.

By UniProt entry, the sequences of proteins in these tests, tags left out. Where a name states a change or a piece, a line headed by the entry shows the natural chain unless it says otherwise. Chains listed by the source or under a name are the forms on record and can include a tag or linker. Residues count along the entry.
UniProt Q8TDY2: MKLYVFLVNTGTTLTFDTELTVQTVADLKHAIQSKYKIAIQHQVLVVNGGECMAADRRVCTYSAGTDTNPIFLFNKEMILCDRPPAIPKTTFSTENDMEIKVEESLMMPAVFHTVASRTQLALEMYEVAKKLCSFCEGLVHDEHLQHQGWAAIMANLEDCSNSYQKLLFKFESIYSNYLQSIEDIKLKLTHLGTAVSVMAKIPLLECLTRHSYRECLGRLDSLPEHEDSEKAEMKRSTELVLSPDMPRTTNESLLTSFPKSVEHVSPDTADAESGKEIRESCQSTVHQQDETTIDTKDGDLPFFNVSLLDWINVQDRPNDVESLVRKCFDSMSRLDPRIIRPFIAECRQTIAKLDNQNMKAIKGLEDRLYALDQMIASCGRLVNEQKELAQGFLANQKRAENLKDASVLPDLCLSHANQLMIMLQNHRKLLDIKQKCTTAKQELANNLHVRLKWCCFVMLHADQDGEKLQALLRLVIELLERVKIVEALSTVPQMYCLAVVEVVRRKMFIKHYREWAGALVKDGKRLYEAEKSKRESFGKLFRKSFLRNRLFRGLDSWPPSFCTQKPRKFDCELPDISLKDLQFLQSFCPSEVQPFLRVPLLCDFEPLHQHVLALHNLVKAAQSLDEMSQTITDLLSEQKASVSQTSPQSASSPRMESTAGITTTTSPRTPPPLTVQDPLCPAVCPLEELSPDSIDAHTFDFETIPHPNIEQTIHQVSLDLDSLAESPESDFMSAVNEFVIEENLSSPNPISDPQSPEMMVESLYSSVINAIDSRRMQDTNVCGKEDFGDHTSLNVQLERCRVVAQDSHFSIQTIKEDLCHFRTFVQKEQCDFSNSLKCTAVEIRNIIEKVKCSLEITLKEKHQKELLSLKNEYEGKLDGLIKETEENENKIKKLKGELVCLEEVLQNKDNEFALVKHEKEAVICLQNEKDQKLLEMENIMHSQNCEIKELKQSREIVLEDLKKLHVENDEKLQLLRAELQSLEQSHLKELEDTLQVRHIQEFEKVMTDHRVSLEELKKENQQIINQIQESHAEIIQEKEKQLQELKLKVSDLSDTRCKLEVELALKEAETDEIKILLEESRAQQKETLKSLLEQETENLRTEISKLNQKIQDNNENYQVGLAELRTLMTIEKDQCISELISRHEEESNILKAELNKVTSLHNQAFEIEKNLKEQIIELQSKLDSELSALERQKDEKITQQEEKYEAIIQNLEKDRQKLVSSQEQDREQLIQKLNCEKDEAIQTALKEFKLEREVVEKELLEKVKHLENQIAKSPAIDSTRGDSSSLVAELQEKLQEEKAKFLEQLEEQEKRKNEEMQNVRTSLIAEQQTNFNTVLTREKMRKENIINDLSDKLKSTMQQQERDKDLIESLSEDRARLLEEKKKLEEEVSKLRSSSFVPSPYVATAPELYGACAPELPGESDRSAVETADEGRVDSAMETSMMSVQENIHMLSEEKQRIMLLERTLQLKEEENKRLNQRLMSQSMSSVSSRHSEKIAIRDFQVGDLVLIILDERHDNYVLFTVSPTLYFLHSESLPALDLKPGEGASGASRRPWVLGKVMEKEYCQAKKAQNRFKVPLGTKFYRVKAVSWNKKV
GST-FIP200ΔN1115: residues 1116-1594 of Q8TDY2
FIP200ΔN1441 (purified, tag cleaved): residues 1442-1594 of Q8TDY2
UniProt A7MCY6: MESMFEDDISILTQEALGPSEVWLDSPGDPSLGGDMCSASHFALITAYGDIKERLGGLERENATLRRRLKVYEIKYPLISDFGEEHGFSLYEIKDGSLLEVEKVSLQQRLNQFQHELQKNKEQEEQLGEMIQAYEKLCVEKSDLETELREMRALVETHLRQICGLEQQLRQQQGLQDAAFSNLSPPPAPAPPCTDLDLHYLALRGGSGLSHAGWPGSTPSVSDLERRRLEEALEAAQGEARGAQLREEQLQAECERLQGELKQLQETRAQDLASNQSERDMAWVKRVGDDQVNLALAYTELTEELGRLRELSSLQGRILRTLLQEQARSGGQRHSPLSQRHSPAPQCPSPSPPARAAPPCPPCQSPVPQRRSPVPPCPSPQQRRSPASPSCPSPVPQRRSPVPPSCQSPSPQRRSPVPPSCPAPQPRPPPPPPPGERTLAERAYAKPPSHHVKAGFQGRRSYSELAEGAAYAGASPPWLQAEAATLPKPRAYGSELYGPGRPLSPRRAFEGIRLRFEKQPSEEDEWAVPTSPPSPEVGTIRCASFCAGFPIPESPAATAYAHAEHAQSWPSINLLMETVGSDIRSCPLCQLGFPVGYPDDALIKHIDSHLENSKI

Legend:
[1] = target: T1, NDP52 (yeast two-hybrid bait; also found as prey clones) (human) (UniProt Q13137); test: two-hybrid; yeast two-hybrid screen with NDP52 as bait, ProQuest Two-Hybrid System; 42 clones analyzed
T1 sequence: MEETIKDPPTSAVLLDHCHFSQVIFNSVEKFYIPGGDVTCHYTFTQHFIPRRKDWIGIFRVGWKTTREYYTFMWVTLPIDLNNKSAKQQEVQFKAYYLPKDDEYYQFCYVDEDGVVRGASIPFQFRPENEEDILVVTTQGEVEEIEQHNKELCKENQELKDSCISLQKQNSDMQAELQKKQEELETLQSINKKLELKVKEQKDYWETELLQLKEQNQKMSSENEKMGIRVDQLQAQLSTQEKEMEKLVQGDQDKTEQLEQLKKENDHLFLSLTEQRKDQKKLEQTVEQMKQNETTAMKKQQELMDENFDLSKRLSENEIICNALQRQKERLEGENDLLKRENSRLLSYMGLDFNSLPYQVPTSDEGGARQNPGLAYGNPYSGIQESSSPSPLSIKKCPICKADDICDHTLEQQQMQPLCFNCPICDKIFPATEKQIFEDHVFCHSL

[2] = target: FIP200ΔN1441 (purified, tag cleaved) (human) (UniProt Q8TDY2); test: HDX-MS; 5 μM FIP200ΔN1441 alone or with 10 μM NDP52 aa20-127 and 10 μM SINTBAD aa6-85 together, 1 h at 23°C, 20 mM Tris pH 7.5, 150 mM NaCl, 1 mM DTT; exchange 0.3, 3 and 30 s; both purified
[3] = target: FLAG-SINTBAD (HeLa) (human) (UniProt A7MCY6); test: co-IP; FLAG-tagged constructs expressed in HeLa cells, immunoprecipitated, endogenous FIP200 detected
[4] = target: T2, NDP52 (yeast two-hybrid bait; also found as prey clones) (human), Q13137; test: two-hybrid; yeast two-hybrid screen with NDP52 as bait, ProQuest Two-Hybrid System; 42 clones analyzed; details: remark: other sources report otherwise
T2 chain: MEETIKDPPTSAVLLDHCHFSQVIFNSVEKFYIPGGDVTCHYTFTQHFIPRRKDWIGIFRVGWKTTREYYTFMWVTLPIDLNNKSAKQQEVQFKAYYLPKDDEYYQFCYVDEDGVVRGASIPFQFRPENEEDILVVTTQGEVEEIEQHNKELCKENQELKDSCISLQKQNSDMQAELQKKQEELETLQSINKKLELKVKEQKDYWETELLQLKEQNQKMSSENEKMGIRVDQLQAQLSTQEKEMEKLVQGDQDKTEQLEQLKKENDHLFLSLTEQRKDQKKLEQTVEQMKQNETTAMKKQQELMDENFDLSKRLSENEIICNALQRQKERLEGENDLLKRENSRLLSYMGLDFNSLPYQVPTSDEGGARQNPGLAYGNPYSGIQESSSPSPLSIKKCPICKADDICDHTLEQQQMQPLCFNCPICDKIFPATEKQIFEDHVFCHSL

GST:NDP52 (human) = target: T3, GST:NDP52 (human) (UniProt Q13137); test: pull-down; GST-based LUMIER: GST fusion from E. coli immobilised on glutathione 4b Sepharose beads, incubated with lysate of transfected HEK293ET cells expressing the Renilla luciferase-tagged protein, 2 h at 4°C, four washes, eluted with 20 mM glutathione, luciferase activity as fold binding against GST only; only the target purified
T3 sequence: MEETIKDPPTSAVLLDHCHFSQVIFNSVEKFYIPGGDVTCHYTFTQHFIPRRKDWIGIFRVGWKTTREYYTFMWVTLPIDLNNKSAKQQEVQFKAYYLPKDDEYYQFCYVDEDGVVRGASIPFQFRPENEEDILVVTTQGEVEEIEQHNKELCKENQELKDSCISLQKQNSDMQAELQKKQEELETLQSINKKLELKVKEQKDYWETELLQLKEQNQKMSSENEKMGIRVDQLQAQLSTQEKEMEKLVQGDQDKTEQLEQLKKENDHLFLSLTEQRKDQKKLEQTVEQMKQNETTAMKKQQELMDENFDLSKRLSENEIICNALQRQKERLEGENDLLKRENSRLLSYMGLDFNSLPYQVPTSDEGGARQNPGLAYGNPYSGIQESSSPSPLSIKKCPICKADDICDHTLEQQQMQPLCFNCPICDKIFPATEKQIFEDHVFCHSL

GST-FIP200ΔN1115 (human) = GST-FIP200ΔN1115 (human) (UniProt Q8TDY2); test: as above

SINTBAD (yeast two-hybrid prey clones) (from UniProt A7MCY6 1-615)
binding [1]: binds

SINTBAD_(aa6-85) (purified, tag cleaved) (from UniProt A7MCY6 6-85) (domain or fragment)
binding [2]: binds

endogenous full-length FIP200 (from UniProt Q8TDY2 1-1594)
binding [3]: binds

B1: NDP52 (yeast two-hybrid bait; also found as prey clones), Q13137 1-446 (protein)
chain: MEETIKDPPTSAVLLDHCHFSQVIFNSVEKFYIPGGDVTCHYTFTQHFIPRRKDWIGIFRVGWKTTREYYTFMWVTLPIDLNNKSAKQQEVQFKAYYLPKDDEYYQFCYVDEDGVVRGASIPFQFRPENEEDILVVTTQGEVEEIEQHNKELCKENQELKDSCISLQKQNSDMQAELQKKQEELETLQSINKKLELKVKEQKDYWETELLQLKEQNQKMSSENEKMGIRVDQLQAQLSTQEKEMEKLVQGDQDKTEQLEQLKKENDHLFLSLTEQRKDQKKLEQTVEQMKQNETTAMKKQQELMDENFDLSKRLSENEIICNALQRQKERLEGENDLLKRENSRLLSYMGLDFNSLPYQVPTSDEGGARQNPGLAYGNPYSGIQESSSPSPLSIKKCPICKADDICDHTLEQQQMQPLCFNCPICDKIFPATEKQIFEDHVFCHSL
binding [4]: binds

B2: Luciferase-ULK2 (enzyme, UniProt Q8IYT8 1-1036)
chain: MEVVGDFEYSKRDLVGHGAFAVVFRGRHRQKTDWEVAIKSINKKNLSKSQILLGKEIKILKELQHENIVALYDVQELPNSVFLVMEYCNGGDLADYLQAKGTLSEDTIRVFLHQIAAAMRILHSKGIIHRDLKPQNILLSYANRRKSSVSGIRIKIADFGFARYLHSNMMAATLCGSPMYMAPEVIMSQHYDAKADLWSIGTVIYQCLVGKPPFQANSPQDLRMFYEKNRSLMPSIPRETSPYLANLLLGLLQRNQKDRMDFEAFFSHPFLEQGPVKKSCPVPVPMYSGSVSGSSCGSSPSCRFASPPSLPDMQHIQEENLSSPPLGPPNYLQVSKDSASTSSKNSSCDTDDFVLVPHNISSDHSCDMPVGTAGRRASNEFLVCGGQCQPTVSPHSETAPIPVPTQIRNYQRIEQNLTSTASSGTNVHGSPRSAVVRRSNTSPMGFLRPGSCSPVPADTAQTVGRRLSTGSSRPYSPSPLVGTIPEQFSQCCCGHPQGHDSRSRNSSGSPVPQAQSPQSLLSGARLQSAPTLTDIYQNKQKLRKQHSDPVCPSHTGAGYSYSPQPSRPGSLGTSPTKHLGSSPRSSDWFFKTPLPTIIGSPTKTTAPFKIPKTQASSNLLALVTRHGPAEEQSKDGNEPRECAHCLLVQGSERQRAEQQSKAVFGRSVSTGKLSDQQGKTPICRHQGSTDSLNTERPMDIAPAGACGGVLAPPAGTAASSKAVLFTVGSPPHSAAAPTCTHMFLRTRTTSVGPSNSGGSLCAMSGRVCVGSPPGPGFGSSPPGAEAAPSLRYVPYGASPPSLEGLITFEAPELPEETLMEREHTDTLRHLNVMLMFTECVLDLTAMRGGNPELCTSAVSLYQIQESVVVDQISQLSKDWGRVEQLVLYMKAAQLLAASLHLAKAQIKSGKLSPSTAVKQVVKNLNERYKFCITMCKKLTEKLNRFFSDKQRFIDEINSVTAEKLIYNCAVEMVQSAALDEMFQQTEDIVYRYHKAALLLEGLSRILQDPADIENVHKYKCSIERRLSALCHSTATV
binding (GST:NDP52 (human)): no binding

B3: Luciferase-tagged TANK (protein, UniProt Q92844 1-425)
chain: MDKNIGEQLNKAYEAFRQACMDRDSAVKELQQKTENYEQRIREQQEQLSLQQTIIDKLKSQLLLVNSTQDNNYGCVPLLEDSETRKNNLTLDQPQDKVISGIAREKLPKVRRQEVSSPRKETSARSLGSPLLHERGNIEKTFWDLKEEFHKICMLAKAQKDHLSKLNIPDTATETQCSVPIQCTDKTDKQEALFKPQAKDDINRGAPSITSVTPRGLCRDEEDTSFESLSKFNVKFPPMDNDSTFLHSTPERPGILSPATSEAVCQEKFNMEFRDNPGNFVKTEETLFEIQGIDPIASAIQNLKTTDKTKPSNLVNTCIRTTLDRAACLPPGDHNALYVNSFPLLDPSDAPFPSLDSPGKAIRGPQQPIWKPFPNQDSDSVVLSGTDSELHIPRVCEFCQAVFPPSITSRGDFLRHLNSHFNGET
binding (GST-FIP200ΔN1115 (human)): no binding

B4: Luciferase-CALCOCO1 (protein, UniProt Q9P1Z2 1-691)
chain: MEESPLSRAPSRGGVNFLNVARTYIPNTKVECHYTLPPGTMPSASDWIGIFKVEAACVRDYHTFVWSSVPESTTDGSPIHTSVQFQASYLPKPGAQLYQFRYVNRQGQVCGQSPPFQFREPRPMDELVTLEEADGGSDILLVVPKATVLQNQLDESQQERNDLMQLKLQLEGQVTELRSRVQELERALATARQEHTELMEQYKGISRSHGEITEERDILSRQQGDHVARILELEDDIQTISEKVLTKEVELDRLRDTVKALTREQEKLLGQLKEVQADKEQSEAELQVAQQENHHLNLDLKEAKSWQEEQSAQAQRLKDKVAQMKDTLGQAQQRVAELEPLKEQLRGAQELAASSQQKATLLGEELASAAAARDRTIAELHRSRLEVAEVNGRLAELGLHLKEEKCQWSKERAGLLQSVEAEKDKILKLSAEILRLEKAVQEERTQNQVFKTELAREKDSSLVQLSESKRELTELRSALRVLQKEKEQLQEEKQELLEYMRKLEARLEKVADEKWNEDATTEDEEAAVGLSCPAALTDSEDESPEDMRLPPYGLCERGDPGSSPAGPREASPLVVISQPAPISPHLSGPAEDSSSDSEAEDEKSVLMAAVQSGGEEANLLLPELGSAFYDMASGFTVGTLSETSTGGPATPTWKECPICKERFPAESDKDALEDHMDGHFFFSTQDPFTFE
binding (GST-FIP200ΔN1115 (human)): no binding
